According to patent US20240239729A1, “Functionalization of Lightly Branched Olefin Oligomers” (priority 2021, published 2024):

Test: Wetting time (skein test)
Assay type: physicochemical
Conditions: average of three measurements; for Wetting time (1 g/L, s): 1 g/L surfactant; for Wetting time (2 g/L, s): 2 g/L surfactant

Q: With `CCCC(C)CCCC(C)CCCOS(=O)(=O)O` (stereo not shown) [Entry 8, 4,8-dimethylundecan-1-sulfate] as the compound, how does the “Wetting time (1 g/L, s)” value read?
A: The value was 6.1 s.

Q: And the “Wetting time (2 g/L, s)” value?
A: The value was 2.3 s.

Q: For `CCCCCCCCCCCCCOS(=O)(=O)[O-].[Na+]` [Entry 5, Sodium n-Tridecyl Sulfate], which “Wetting time (1 g/L, s)” value is on record?
A: Its value is 6.3 s.

Q: And the “Wetting time (2 g/L, s)” value?
A: Its value is 3.1 s.
